Here are results for one molecule from PMC9345969.

This experiment has as its target KSR2-Myc. Briefly: co-IP; lysates of U87MG cells transiently expressing Flag-praja2 and KSR2-Myc; immunoprecipitation with anti-Myc antibody (IgG as control); immunoblot for Flag, KSR2-Myc and AMPKα1. Background: In western blotting, separated proteins are transferred to a membrane and probed.

No constants are given. Whether binding was seen depends on the method and setting. Binding seen in cells or lysates may run through a third protein. Binding calls can cover weak binding; strength is not graded here. Tags and fused reporters may be left off the sequences shown.

B1: Flag-praja2 (enzyme, UniProt O43164 1-708)
chain: MSQYTEKEPAAMDQESGKAVWPKPAGGYQTITGRRYGRRHAYVSFKPCMTRHERSLGRAGDDYEVLELDDVPKENSSGSSPLDQVDSSLPSEPIFEKSETEIPTCGSALNQTTESSQSFVAVHHSEEGRDTLGSSTNLHNHSEGEYIPGACSASSVQNGIALVHTDSYDPDGKHGEDNDHLQLSAEVVEGSRYQESLGNTVFELENREAEAYTGLSPPVPSFNCEVRDEFEELDSVPLVKSSAGDTEFVHQNSQEIQRSSQDEMVSTKQQNNTSQERQTEHSPEDAACGPGHICSEQNTNDREKNHGSSPEQVVRPKVRKLISSSQVDQETGFNRHEAKQRSVQRWREALEVEESGSDDLLIKCEEYDGEHDCMFLDPPYSRVITQRETENNQMTSESGATAGRQEVDNTFWNGCGDYYQLYDKDEDSSECSDGEWSASLPHRFSGTEKDQSSSDESWETLPGKDENEPELQSDSSGPEEENQELSLQEGEQTSLEEGEIPWLQYNEVNESSSDEGNEPANEFAQPAFMLDGNNNLEDDSSVSEDLDVDWSLFDGFADGLGVAEAISYVDPQFLTYMALEERLAQAMETALAHLESLAVDVEVANPPASKESIDGLPETLVLEDHTAIGQEQCCPICCSEYIKDDIATELPCHHFFHKPCVSIWLQKSGTCPVCRRHFPPAVIEASAAPSSEPDPDAPPSNDSIAEAP
Take B1: the binding entry is on record as “binds”.
